The target of assay [1] is T1, receptor clone 15 (portion of single Ig IL-1 receptor-related protein Sigirr/TIR8) (murine) (UniProt Q9JLZ8).
T1 sequence: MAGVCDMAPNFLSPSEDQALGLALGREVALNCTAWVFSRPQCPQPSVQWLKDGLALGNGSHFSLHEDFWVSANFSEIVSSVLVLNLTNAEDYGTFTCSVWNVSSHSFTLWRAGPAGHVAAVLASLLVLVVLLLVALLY
Nature of the assay: bacterial two-hybrid (BacterioMatch), peptide bait against heart cDNA target clone.

Assay [2] concerns the target T2, murine single Ig IL-1 receptor related protein (Sigirr/TIR8), full length (murine) (UniProt Q9JLZ8).
T2 sequence: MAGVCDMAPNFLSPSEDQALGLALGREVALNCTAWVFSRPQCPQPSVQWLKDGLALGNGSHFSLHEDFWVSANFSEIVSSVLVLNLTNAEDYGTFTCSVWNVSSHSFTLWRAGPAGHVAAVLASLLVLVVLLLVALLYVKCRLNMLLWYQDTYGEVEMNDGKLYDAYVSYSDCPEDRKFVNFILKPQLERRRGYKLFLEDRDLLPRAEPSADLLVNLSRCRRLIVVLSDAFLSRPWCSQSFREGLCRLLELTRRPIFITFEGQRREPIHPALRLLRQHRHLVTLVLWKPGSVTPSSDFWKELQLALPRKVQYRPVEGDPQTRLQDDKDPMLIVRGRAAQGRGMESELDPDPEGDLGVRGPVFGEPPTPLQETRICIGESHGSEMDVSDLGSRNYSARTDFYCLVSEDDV
Nature of the assay: phage binding to Sigirr-transfected 293T cells (FIG. 4B).

Assay [3] addresses T2, murine single Ig IL-1 receptor related protein (Sigirr/TIR8), full length (murine). Nature of the assay: phage binding to receptor-transfected 293T cells, plaque assay.
Assay [4] addresses T3, murine bladder cancer-associated protein homolog (bc10), full length (murine) (UniProt P62951).
T3 sequence: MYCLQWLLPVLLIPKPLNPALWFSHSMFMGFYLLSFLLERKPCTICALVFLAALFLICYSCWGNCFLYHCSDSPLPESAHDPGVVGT
Described as above.

The target in assay [5] is T3, murine bladder cancer-associated protein homolog (bc10), full length (murine). Nature of the assay: phage binding to bc10-transfected 293T cells (FIG. 4D).
For assay [6], the target named is T4, MpcII-3-related protein (murine polypeptide with putative similarity to integral membrane protein CII-3), full length (murine) (UniProt Q9CZB0).
T4 sequence: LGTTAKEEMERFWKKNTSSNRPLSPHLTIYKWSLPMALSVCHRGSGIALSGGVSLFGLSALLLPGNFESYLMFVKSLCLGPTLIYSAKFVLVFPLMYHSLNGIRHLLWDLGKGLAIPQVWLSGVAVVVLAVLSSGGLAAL
Nature of the assay: phage binding to 293T cells transfected with MpcII-3-related protein SEQ ID NO: 33 (FIG. 4C).

Assay [7] deals with T4, MpcII-3-related protein (murine polypeptide with putative similarity to integral membrane protein CII-3), full length (murine). Nature of the assay: phage binding to receptor-transfected 293T cells, plaque assay.
The target is the same in assay [8]. Nature of the assay: competition: free peptide against … phage on 293T cells transfected with SEQ ID NO: 33 (FIG. 4C).
Assay [9] shares this target. Nature of the assay: competition: free peptide against … phage on MpcII-3-related protein-transfected 293T cells.
Assay [10] addresses T5, murine cysteine-rich protein 2 / heart LIM-protein (HLP/CRIP2), full length (murine) (UniProt Q9DCT8).
T5 sequence: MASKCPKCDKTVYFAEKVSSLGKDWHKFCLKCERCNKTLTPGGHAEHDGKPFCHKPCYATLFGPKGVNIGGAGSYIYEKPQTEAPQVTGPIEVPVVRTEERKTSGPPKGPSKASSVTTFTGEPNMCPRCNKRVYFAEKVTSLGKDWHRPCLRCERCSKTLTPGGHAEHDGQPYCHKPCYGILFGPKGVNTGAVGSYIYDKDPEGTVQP
Nature of the assay: phage binding to receptor-transfected 293T cells, plaque assay.

Assay [11] deals with T5, murine cysteine-rich protein 2 / heart LIM-protein (HLP/CRIP2), full length (murine). Nature of the assay: ex vivo phage binding to cell suspensions prepared from mouse heart; receptor taken as HLP/CRIP2 by the filing (FIG. 7).
For assay [12] the target is unchanged. Nature of the assay: phage binding to CRIP2-transfected 293T cells (FIG. 4A).
For assay [13], the target named is T6, receptor clone 46 (portion of the mouse homolog of human bladder cancer-associated protein 10, bc10) (murine).
T6 sequence: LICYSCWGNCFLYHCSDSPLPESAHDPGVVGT
Nature of the assay: bacterial two-hybrid (BacterioMatch), peptide bait against heart cDNA target clone.

Results are given in words; binding and its absence hold for the method and conditions named. Some binding calls cover weakened binding; strength is not graded here.

With CKRAVR (peptide, not shown: large carriers) [CKRAVR (SEQ ID NO: 7), peptide insert in bait plasmid pBT-hp], in assay [1], the binding entry is “binds”.
For the molecule CKRAVR (peptide, not shown: large carriers) [CKRAVR (SEQ ID NO: 7)-displaying phage (T7Select 415-1)], the binding result in assay [2] and in assay [3] was “binds” throughout.
CPKTRRVPC (peptide, not shown: large carriers) [… (SEQ ID NO: 12)-displaying phage (T7Select 415-1)]: the binding result in assay [4] and in assay [5] was “binds” each time.
Turning to CRSTRANPC (peptide, not shown: large carriers) [… (SEQ ID NO: 11)-displaying phage (T7Select 415-1)], the binding result in assay [6] and in [7] was “binds” in each case.
Consider CRSTRANPC [free synthetic peptide … (SEQ ID NO: 11)], for which the binding entry in assay [8] and in [9] was “binds” each time.
Turning to CRPPR (peptide, not shown: large carriers) [CRPPR (SEQ ID NO: 1)-displaying phage (T7Select 415-1)], the binding entry in [10], in assay [11] and in assay [12] was “binds” throughout.
CPKTRRVPC (peptide, not shown: large carriers) [… (SEQ ID NO: 12), peptide insert in bait plasmid pBT-hp]: the binding entry in assay [13] is listed as “binds”.

The values are drawn from patent publication US20060160743A1 (SANFORD BURNHAM MEDICAL RESEARCH INSTITUTE, published 2006).
